Assay results reported in publication PMC11967773.
Results are given in words; binding and its absence hold for the method and conditions named. For some of these results: Binding seen in cells or lysates may run through a third protein. Some entries that bind do so weakly or less than the wild type. For some of these results: Where a sequence is shown, tags or fusion partners need not be part of it.

Amino acid sequences for entries named in this document (tags omitted).
UniProt Q04726: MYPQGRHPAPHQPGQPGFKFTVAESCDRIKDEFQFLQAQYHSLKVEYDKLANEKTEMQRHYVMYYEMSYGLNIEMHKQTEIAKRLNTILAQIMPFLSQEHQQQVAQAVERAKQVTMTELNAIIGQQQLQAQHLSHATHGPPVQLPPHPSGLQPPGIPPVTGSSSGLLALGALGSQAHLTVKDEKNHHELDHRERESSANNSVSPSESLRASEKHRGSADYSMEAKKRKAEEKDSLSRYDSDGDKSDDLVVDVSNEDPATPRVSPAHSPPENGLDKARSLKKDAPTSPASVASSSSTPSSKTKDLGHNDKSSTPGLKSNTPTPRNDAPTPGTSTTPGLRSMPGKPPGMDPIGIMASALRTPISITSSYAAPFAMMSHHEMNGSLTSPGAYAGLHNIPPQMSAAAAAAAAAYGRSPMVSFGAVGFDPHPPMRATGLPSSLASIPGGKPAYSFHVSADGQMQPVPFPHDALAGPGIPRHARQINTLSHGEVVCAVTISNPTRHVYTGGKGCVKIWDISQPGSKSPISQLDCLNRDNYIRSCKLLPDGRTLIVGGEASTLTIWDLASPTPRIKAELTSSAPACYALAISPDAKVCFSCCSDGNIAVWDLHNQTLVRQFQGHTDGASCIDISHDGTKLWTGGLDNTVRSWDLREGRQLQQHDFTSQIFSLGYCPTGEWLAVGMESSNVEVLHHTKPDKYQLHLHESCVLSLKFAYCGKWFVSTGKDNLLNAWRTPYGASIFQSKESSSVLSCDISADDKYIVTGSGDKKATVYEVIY
UniProt Q08122: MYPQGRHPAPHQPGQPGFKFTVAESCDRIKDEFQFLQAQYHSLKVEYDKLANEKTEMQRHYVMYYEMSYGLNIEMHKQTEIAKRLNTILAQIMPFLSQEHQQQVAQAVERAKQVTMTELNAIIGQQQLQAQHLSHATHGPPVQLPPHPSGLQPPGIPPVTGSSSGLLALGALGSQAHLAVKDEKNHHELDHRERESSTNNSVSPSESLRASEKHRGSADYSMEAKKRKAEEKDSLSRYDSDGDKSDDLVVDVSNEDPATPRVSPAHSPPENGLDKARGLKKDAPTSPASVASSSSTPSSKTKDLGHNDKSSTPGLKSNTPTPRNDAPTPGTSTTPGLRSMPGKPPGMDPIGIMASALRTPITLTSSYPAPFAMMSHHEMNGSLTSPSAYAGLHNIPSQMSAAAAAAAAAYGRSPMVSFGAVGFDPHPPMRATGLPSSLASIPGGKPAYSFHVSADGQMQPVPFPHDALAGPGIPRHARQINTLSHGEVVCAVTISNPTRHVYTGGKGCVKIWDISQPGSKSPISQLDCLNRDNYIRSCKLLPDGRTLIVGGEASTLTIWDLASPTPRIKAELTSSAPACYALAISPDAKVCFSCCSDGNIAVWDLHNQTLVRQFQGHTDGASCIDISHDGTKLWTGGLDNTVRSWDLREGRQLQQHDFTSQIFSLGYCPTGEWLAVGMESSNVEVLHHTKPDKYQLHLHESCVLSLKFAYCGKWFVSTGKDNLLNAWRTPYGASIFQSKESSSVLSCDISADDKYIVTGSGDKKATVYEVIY

Assays:
[1] = target: T1, TRIM56, endogenous mouse (mouse (endogenous in iWAT)) (UniProt Q80VI1); assay: co-IP; iWAT lysates of mice given CL316243 injections for 5 days or PBS; lysis buffer without SDS, antibody or IgG control overnight at 4 °C, Protein A/G magnetic beads
T1 sequence: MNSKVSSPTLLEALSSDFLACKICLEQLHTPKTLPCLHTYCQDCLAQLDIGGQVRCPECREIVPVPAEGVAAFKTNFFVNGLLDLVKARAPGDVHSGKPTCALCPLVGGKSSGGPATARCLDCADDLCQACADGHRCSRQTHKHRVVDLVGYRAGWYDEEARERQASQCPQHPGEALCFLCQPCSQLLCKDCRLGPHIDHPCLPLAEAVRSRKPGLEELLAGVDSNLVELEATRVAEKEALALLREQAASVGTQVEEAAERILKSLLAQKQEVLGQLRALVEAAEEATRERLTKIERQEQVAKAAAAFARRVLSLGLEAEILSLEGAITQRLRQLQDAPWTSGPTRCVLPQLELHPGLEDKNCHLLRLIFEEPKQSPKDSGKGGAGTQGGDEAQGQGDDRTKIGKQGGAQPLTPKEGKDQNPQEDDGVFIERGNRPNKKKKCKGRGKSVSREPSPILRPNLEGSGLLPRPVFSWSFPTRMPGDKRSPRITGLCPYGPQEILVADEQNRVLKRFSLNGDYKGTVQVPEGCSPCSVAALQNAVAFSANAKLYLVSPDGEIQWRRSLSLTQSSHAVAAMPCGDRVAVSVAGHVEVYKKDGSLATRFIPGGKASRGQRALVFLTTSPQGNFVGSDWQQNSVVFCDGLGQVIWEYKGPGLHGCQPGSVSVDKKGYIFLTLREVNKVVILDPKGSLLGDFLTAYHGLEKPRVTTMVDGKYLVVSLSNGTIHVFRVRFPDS

GST-TLE3, human (human) = GST-TLE3, human (human) (UniProt Q04726); assay: pull-down; GST pull-down; purified FLAG-TRIM56 co-incubated in vitro with GST-TLE3 or GST; both purified
HA-TLE3 (human) = HA-TLE3 (human) (UniProt Q04726); assay: co-IP; HEK293T cells co-transfected with FLAG-tagged TRIM56 (full length or truncated fragments) and HA-tagged TLE3; immunoprecipitation

| Molecule | binding [1] | binding (GST-TLE3, human (human)) | binding (HA-TLE3 (human)) |
| --- | --- | --- | --- |
| transducin-like enhancer protein 3 (TLE3), endogenous mouse (from UniProt Q08122 1-772) | binds |  |  |
| FLAG-TRIM56, human, full length (enzyme, UniProt Q9BRZ2 1-755) MVSHGSSPSLLEALSSDFLACKICLEQLRAPKTLPCLHTYCQDCLAQLADGGRVRCPECRETVPVPPEGVASFKTNFFVNGLLDLVKARACGDLRAGKPACALCPLVGGTSTGGPATARCLDCADDLCQACADGHRCTRQTHTHRVVDLVGYRAGWYDEEARERQAAQCPQHPGEALRFLCQPCSQLLCRECRLDPHLDHPCLPLAEAVRARRPGLEGLLAGVDNNLVELEAARRVEKEALARLREQAARVGTQVEEAAEGVLRALLAQKQEVLGQLRAHVEAAEEAARERLAELEGREQVARAAAAFARRVLSLGREAEILSLEGAIAQRLRQLQGCPWAPGPAPCLLPQLELHPGLLDKNCHLLRLSFEEQQPQKDGGKDGAGTQGGEESQSRREDEPKTERQGGVQPQAGDGAQTPKEEKAQTTREEGAQTLEEDRAQTPHEDGGPQPHRGGRPNKKKKFKGRLKSISREPSPALGPNLDGSGLLPRPIFYCSFPTRMPGDKRSPRITGLCPFGPREILVADEQNRALKRFSLNGDYKGTVPVPEGCSPCSVAALQSAVAFSASARLYLINPNGEVQWRRALSLSQASHAVAALPSGDRVAVSVAGHVEVYNMEGSLATRFIPGGKASRGLRALVFLTTSPQGHFVGSDWQQNSVVICDGLGQVVGEYKGPGLHGCQPGSVSVDKKGYIFLTLREVNKVVILDPKGSLLGDFLTAYHGLEKPRVTTMVDGRYLVVSLSNGTIHIFRVRSPDS |  | binds | binds |
| FLAG-TRIM56 truncated fragment, amino acids 1 to 521 (domain or fragment, UniProt Q9BRZ2 1-521) MVSHGSSPSLLEALSSDFLACKICLEQLRAPKTLPCLHTYCQDCLAQLADGGRVRCPECRETVPVPPEGVASFKTNFFVNGLLDLVKARACGDLRAGKPACALCPLVGGTSTGGPATARCLDCADDLCQACADGHRCTRQTHTHRVVDLVGYRAGWYDEEARERQAAQCPQHPGEALRFLCQPCSQLLCRECRLDPHLDHPCLPLAEAVRARRPGLEGLLAGVDNNLVELEAARRVEKEALARLREQAARVGTQVEEAAEGVLRALLAQKQEVLGQLRAHVEAAEEAARERLAELEGREQVARAAAAFARRVLSLGREAEILSLEGAIAQRLRQLQGCPWAPGPAPCLLPQLELHPGLLDKNCHLLRLSFEEQQPQKDGGKDGAGTQGGEESQSRREDEPKTERQGGVQPQAGDGAQTPKEEKAQTTREEGAQTLEEDRAQTPHEDGGPQPHRGGRPNKKKKFKGRLKSISREPSPALGPNLDGSGLLPRPIFYCSFPTRMPGDKRSPRITGLCPFGPREI |  |  | no binding |
